Measured values reported in the supplement of paper PMC10849652.
The list shows a part of the results.

The chains behind the UniProt entries cited, without tags or fusion partners. Where a name states a change or a piece, a line headed by the entry shows the natural chain unless it says otherwise.
UniProt Q15388, whole entry, looked up: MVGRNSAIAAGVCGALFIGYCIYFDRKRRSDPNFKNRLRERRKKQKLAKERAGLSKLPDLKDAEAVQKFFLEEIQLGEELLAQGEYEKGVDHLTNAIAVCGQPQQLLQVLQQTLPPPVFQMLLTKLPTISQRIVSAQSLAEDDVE
UniProt Q9BSV6: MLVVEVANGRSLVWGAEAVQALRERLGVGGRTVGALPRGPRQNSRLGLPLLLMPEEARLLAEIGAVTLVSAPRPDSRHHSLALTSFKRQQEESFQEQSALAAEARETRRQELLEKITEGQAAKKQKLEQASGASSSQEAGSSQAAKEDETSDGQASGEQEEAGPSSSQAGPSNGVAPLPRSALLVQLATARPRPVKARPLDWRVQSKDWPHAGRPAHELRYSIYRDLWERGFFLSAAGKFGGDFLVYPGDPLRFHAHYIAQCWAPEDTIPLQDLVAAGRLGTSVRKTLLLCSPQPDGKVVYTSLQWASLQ
UniProt Q9Y3Q8: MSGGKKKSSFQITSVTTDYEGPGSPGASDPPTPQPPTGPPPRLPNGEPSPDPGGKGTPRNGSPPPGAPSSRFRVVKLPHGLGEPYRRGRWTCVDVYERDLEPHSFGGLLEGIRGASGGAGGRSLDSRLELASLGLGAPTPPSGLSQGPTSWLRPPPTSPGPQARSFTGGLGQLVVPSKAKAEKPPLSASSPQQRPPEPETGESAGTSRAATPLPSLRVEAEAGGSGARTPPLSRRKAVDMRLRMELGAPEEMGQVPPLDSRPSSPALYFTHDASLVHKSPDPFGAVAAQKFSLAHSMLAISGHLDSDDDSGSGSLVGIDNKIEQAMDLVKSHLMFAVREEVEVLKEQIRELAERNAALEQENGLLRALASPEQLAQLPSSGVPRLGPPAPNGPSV
UniProt P11387: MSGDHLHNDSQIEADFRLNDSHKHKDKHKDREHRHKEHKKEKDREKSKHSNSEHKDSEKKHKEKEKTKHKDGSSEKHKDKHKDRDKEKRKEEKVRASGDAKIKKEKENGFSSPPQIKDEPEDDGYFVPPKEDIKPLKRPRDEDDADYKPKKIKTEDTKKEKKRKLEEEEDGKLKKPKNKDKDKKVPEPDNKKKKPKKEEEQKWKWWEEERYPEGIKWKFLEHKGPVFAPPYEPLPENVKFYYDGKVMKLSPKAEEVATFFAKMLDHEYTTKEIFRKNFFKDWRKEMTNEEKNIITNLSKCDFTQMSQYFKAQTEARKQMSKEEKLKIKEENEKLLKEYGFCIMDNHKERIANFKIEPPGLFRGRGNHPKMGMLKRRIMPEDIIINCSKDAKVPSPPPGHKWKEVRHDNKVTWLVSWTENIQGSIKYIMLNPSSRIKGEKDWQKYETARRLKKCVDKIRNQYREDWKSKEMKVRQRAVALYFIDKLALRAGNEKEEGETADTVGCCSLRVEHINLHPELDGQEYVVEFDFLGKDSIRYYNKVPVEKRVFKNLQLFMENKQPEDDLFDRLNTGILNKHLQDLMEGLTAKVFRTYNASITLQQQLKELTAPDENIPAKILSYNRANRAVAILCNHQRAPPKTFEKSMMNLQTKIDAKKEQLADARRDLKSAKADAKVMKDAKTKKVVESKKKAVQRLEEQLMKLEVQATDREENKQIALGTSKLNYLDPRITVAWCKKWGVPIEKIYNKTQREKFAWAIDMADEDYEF
UniProt Q15645: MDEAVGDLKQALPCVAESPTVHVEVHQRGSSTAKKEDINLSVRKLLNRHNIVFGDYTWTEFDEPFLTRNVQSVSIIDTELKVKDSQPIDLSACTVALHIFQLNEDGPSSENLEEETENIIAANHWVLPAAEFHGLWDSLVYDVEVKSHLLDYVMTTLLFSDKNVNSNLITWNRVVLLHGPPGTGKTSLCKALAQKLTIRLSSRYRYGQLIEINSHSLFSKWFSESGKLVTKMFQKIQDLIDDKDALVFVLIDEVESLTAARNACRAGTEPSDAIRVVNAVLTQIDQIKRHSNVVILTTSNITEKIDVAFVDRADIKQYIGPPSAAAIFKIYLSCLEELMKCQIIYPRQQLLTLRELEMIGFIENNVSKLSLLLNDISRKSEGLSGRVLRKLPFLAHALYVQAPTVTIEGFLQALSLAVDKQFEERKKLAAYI
UniProt Q9C037: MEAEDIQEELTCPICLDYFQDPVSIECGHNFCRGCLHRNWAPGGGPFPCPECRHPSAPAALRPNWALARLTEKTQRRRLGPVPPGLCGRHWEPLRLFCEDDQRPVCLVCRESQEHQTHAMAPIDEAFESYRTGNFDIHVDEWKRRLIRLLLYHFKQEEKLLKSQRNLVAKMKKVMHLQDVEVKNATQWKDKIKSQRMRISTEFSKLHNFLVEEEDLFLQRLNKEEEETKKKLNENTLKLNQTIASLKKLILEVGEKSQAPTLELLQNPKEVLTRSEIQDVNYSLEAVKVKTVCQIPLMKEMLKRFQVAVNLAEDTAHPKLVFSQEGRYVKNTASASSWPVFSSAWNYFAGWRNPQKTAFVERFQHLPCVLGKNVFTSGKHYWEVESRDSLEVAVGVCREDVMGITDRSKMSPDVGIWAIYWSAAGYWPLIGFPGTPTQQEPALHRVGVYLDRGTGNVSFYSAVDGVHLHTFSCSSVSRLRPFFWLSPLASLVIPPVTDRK
UniProt P06753, whole entry, looked up: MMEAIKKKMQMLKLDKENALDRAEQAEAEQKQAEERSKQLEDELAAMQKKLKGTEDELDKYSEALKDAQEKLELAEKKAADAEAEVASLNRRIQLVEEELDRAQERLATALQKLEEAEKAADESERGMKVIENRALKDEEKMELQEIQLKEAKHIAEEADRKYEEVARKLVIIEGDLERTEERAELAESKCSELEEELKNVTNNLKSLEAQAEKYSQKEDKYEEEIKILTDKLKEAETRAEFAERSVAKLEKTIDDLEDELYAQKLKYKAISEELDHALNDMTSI
UniProt P29144: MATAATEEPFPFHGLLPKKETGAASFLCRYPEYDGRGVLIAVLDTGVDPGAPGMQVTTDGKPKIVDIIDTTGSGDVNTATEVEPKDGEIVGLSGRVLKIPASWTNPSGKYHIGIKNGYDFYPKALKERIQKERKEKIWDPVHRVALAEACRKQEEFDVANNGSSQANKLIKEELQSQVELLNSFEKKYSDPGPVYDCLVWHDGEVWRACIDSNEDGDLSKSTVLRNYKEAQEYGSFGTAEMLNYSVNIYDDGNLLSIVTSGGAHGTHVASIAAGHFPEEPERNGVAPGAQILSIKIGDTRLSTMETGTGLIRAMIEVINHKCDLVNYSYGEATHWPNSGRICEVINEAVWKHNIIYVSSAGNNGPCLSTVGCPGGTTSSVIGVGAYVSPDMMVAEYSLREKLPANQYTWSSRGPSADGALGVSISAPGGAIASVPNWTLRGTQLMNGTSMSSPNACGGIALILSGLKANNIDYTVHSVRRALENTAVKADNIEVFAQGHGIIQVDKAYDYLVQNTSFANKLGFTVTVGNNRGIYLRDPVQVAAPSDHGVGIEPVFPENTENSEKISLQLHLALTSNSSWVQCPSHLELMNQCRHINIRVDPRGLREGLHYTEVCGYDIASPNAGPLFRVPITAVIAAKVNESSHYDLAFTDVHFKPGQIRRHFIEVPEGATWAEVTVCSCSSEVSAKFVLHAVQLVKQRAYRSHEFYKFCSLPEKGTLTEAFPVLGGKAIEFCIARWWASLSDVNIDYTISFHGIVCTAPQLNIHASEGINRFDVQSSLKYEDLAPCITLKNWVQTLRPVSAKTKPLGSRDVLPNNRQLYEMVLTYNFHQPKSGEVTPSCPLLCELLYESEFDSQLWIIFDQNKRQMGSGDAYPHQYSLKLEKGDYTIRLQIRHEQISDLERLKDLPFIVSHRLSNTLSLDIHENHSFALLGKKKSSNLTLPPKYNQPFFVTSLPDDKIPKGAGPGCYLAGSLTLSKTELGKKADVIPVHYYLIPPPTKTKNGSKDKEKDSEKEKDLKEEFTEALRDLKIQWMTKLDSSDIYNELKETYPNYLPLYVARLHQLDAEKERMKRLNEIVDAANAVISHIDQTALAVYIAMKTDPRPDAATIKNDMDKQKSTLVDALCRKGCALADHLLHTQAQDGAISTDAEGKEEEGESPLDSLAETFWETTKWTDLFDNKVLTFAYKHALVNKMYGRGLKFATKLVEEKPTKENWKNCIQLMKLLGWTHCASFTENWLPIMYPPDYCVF
UniProt O96008: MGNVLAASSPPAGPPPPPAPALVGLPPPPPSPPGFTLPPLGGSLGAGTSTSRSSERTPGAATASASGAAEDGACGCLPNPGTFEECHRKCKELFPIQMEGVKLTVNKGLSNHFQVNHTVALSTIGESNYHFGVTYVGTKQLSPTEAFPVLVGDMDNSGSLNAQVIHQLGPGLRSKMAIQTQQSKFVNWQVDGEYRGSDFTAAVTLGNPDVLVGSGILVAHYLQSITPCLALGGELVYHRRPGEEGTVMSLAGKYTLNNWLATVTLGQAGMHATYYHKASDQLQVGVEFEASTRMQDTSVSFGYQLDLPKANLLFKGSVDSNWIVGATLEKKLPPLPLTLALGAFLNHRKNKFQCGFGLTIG
UniProt Q5JU69: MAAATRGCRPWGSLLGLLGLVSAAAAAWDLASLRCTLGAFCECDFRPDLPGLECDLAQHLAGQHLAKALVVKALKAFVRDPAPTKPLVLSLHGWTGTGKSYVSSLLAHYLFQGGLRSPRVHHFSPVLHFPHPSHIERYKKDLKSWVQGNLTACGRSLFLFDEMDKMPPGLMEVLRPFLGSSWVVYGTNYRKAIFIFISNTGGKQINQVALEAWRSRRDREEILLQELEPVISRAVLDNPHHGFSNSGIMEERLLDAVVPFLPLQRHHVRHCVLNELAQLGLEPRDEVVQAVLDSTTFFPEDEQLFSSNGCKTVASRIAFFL
UniProt O43715: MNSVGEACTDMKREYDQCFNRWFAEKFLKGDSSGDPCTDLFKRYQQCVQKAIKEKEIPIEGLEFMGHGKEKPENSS
UniProt Q15654: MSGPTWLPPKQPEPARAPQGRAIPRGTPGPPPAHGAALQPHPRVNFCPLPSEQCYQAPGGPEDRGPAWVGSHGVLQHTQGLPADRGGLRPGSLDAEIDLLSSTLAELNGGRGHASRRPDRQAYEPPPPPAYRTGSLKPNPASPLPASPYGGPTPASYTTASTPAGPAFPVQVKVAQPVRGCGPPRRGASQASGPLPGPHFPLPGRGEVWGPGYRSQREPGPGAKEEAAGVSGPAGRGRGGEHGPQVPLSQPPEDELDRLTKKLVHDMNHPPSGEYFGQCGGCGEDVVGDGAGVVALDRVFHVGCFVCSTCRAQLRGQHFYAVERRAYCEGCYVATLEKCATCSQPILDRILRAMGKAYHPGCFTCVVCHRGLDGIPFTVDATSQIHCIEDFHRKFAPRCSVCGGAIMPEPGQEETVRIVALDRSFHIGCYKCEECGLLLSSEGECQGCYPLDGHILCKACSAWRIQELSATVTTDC
UniProt Q96S44: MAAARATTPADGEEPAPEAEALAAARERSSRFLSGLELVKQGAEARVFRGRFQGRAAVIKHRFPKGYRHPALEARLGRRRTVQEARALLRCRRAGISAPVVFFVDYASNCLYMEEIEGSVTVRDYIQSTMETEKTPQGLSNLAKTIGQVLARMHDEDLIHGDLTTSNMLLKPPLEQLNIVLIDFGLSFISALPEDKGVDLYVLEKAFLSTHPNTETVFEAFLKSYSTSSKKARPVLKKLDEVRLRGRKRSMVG
UniProt Q96F44: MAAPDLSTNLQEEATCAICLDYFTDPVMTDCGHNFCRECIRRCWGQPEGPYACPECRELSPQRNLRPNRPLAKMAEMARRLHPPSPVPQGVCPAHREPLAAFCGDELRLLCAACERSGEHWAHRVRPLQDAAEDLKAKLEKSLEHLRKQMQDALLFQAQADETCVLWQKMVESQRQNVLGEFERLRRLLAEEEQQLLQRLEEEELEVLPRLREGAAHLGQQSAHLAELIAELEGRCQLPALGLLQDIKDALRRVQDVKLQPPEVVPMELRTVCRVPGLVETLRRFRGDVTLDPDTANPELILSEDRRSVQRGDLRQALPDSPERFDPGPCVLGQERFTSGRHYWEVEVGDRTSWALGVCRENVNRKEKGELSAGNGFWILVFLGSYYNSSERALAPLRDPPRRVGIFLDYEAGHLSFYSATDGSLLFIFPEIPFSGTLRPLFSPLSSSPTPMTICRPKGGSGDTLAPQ
UniProt O60784, whole entry, looked up: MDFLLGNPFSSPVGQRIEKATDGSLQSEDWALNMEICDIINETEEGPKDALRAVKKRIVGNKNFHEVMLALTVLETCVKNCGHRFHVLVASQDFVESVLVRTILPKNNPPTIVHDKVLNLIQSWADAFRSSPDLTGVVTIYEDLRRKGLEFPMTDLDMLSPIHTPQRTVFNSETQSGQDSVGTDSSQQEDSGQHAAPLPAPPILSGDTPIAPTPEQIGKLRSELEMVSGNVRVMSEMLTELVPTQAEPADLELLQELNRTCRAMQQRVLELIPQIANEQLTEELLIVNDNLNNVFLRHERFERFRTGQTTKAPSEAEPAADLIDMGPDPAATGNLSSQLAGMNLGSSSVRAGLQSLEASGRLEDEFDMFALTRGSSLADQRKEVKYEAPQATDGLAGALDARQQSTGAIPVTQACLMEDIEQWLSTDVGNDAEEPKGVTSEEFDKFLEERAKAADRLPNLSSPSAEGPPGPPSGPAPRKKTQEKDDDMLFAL

compound: CC1=NC(=CC=C1)C2=C(N=C(N2)C(C)(C)C)C3=CC4=NC=CN=C4C=C3; experiment: log2 fold change, soluble protein after heating vs DMSO (PISA); higher = thermal stabilisation; K562 cells, 10 uM, 30 min; active = over 0.2 and 3.5 SD of the protein, either way, in both replicates (recomputed)
Procedure, shortened: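 Quantification of soluble protein used TMTpro 16plex LC-MS/MS, with channel sums equalised. Samples were the supernatant after 21,000xg for 90 min of pooled aliquots from K562 cells (2×10^6 cells/mL) treated with 10 μM compound for 30 min, heated for 3 min over 48°C-58°C, and extracted in PBS with 0.5% NP-40 at 4°C. Values, from duplicates, describe thermal stability against control samples on a log2 fold-change scale.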

Target | log2 fold change
TOMM20 (UniProt Q15388) | inactive: -0.019
TSEN34 (UniProt Q9BSV6) | inactive: 0.087
TSC22D4 (UniProt Q9Y3Q8) | inactive: 0.004
TOP1 (UniProt P11387) | inactive: 0.061
TRIP13 (UniProt Q15645) | inactive: 0.053
TOP3B (UniProt O95985) | inactive: -0.054
TRIM4 (UniProt Q9C037) | inactive: -0.076
TPM3 isoform 4 (UniProt P06753) | inactive: -0.004
TPP2 (UniProt P29144) | inactive: -0.225
TOMM40 (UniProt O96008) | inactive: 0.034
TRAPPC8 (UniProt Q9Y2L5) | inactive: -0.022
TOR2A (UniProt Q5JU69) | inactive: 0.042
TRIAP1 (UniProt O43715) | inactive: 0.117
TRIP11 (UniProt Q15643) | inactive: -0.025
TRIP6 (UniProt Q15654) | inactive: 0.025
TP53RK (UniProt Q96S44) | inactive: 0.038
TOR1AIP2 (UniProt Q8NFQ8) | inactive: -0.028
TOE1 (UniProt Q96GM8) | inactive: -0.109
TPM4, A0A2R8Y5V9 | inactive: 0.01
TRIM11 (UniProt Q96F44) | inactive: -0.052
TRMT6 (UniProt Q9UJA5) | inactive: -0.06
TOM1 isoform 2 (UniProt O60784) | inactive: 0.051
TP53I3 (UniProt Q53FA7) | inactive: -0.072

No new results follow: an excerpt of the list.
Target | log2 fold change
TP53RK (UniProt Q96S44) | inactive: 0.038
TOR1AIP2 (UniProt Q8NFQ8) | inactive: -0.028
TOE1 (UniProt Q96GM8) | inactive: -0.109
TPM4, A0A2R8Y5V9 | inactive: 0.01
TRIM11 (UniProt Q96F44) | inactive: -0.052
